Measurements reported in PubChem BioAssay AID1259308 (NCATS, 2017)

Test: 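Genes whose loss raises luciferase production in HEK293 cells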 (primary screen)
System: human HEK293 embryonic kidney cells stably expressing firefly luciferase (HEK-CMV-Luc2-Hygro)
Reagents: single siRNA against human genes, 0.8 pmol siRNA per well
Time to read-out: 72 h
Measured: 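Luciferase light (ONE-Glo) measured on one replicate plate set and viability (CellTiter-Glo) on the other, scaled to a negative control siRNA, with robust z-scores and luciferase per cell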
Reading the numbers: total luciferase, z-score and total luciferase, % of control: higher = more reporter protein produced; luciferase per cell, z-score: higher = more reporter output per viable cell; viable cells, % of control: higher = more viable cells
Rule for the call: 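Active when the median/MAD z-score for overall luciferase is greater than 3; a gene was taken forward for validation with new siRNAs if at least two of its three siRNAs passed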
Calls: active = raised luciferase; inactive = no rise
The deposit covers about 59,000 reagents; shown is a part drawn at random. Over the whole deposit, about 1,510 (2.6%) are marked active. 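Calls use total luciferase alone and ignore viability, so some active siRNAs may act by altering cell number.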 The numbers tell different reagents against one gene apart.

gene,reagent no.,"total luciferase, z-score","total luciferase, % of control","luciferase per cell, z-score","viable cells, % of control",call
GID8 (GeneID 54994),1,0.408,90,0.417,90.1,inactive
GID8 (GeneID 54994),2,2.18,125,1.6,91.8,inactive
GID8 (GeneID 54994),3,-0.192,78.1,-0.305,94.5,inactive
SKIC2 (GeneID 6499),1,0.153,84.9,-0.267,102,inactive
SKIC2 (GeneID 6499),2,-0.187,78.2,-0.15,90.9,inactive
SKIC2 (GeneID 6499),3,1.91,120,2.02,78.8,inactive
COMMD6 (GeneID 170622),1,3.39,149,3.27,70.5,active
COMMD6 (GeneID 170622),2,-0.158,78.7,0.02,87.5,inactive
COMMD6 (GeneID 170622),3,2.03,122,2.63,68.2,inactive
WNT11 (GeneID 7481),1,-0.152,78.9,0.508,77.1,inactive
WNT11 (GeneID 7481),2,0.805,97.9,1.52,73.2,inactive
WNT11 (GeneID 7481),3,-0.348,75,-0.834,104,inactive
QDPR (GeneID 5860),1,-1.08,60.5,-1.35,96.4,inactive
QDPR (GeneID 5860),2,4.61,174,2.43,102,active
QDPR (GeneID 5860),3,0.15,84.9,0.345,86.6,inactive
CLIC5 (GeneID 53405),1,-0.716,67.7,-0.168,79,inactive
CLIC5 (GeneID 53405),2,-0.934,63.3,-0.139,73.4,inactive
CLIC5 (GeneID 53405),3,0.427,90.4,0.157,96.9,inactive
CTSC (GeneID 1075),1,-0.656,68.8,1.93,46.3,inactive
CTSC (GeneID 1075),2,-0.783,66.3,-1.28,104,inactive
CTSC (GeneID 1075),3,-0.329,75.3,-0.596,98.5,inactive
MPV17L2 (GeneID 84769),1,-0.779,66.4,-0.731,89.9,inactive
MPV17L2 (GeneID 84769),2,0.0103,82.1,0.0153,91.4,inactive
MPV17L2 (GeneID 84769),3,-0.316,75.6,-0.0311,85.2,inactive
TPCN2 (GeneID 219931),1,-2.47,32.7,-3,80.6,inactive
TPCN2 (GeneID 219931),2,0.544,92.7,0.458,91.8,inactive
TPCN2 (GeneID 219931),3,0.495,91.7,0.221,96.7,inactive
TIMP1 (GeneID 7076),1,1.37,109,1.23,88.1,inactive
TIMP1 (GeneID 7076),2,-0.404,73.9,0.0668,81.1,inactive
TIMP1 (GeneID 7076),3,0.136,84.6,-0.339,103,inactive
FNDC4 (GeneID 64838),1,0.424,90.3,0.966,78.3,inactive
FNDC4 (GeneID 64838),2,0.36,89.1,-0.538,115,inactive
FNDC4 (GeneID 64838),3,0.0261,82.4,-0.145,95.7,inactive
ABCA15P (GeneID 400508),1,3.16,145,2.25,89.5,active
ABCA15P (GeneID 400508),2,-0.281,76.3,-0.382,94.3,inactive
ABCA15P (GeneID 400508),3,-0.772,66.5,-1.07,98.5,inactive
NXF3 (GeneID 56000),1,-0.0322,81.2,-0.126,93.8,inactive
NXF3 (GeneID 56000),2,0.521,92.2,0.241,96.7,inactive
NXF3 (GeneID 56000),3,-1.02,61.7,-1,89.8,inactive
